Earlier results as cited in patent US10173038B2, “Retractable sheath devices, systems, and methods” (W. L. Gore & Associates, Inc., priority 2012, dated 2019).

For `CC(=O)O[C@H]1C(=O)[C@@]2(C)[C@H]([C@H](OC(=O)c3ccccc3)[C@]3(O)C[C@H](OC(=O)[C@H](O)[C@@H](NC(=O)c4ccccc4)c4ccccc4)C(C)=C1C3(C)C)[C@]1(OC(C)=O)CO[C@@H]1C[C@@H]2O` [paclitaxel], the “solubility limit in water” value (neat DI-water, room temperature) is listed as “about 0.4 μM” and the “solubilized concentration of paclitaxel in solution” value (with hydroxypropyl-β-cyclodextrin at 60% (w/v in water)) is listed as “approximately 4 mM”.
